# According to the supplement of paper PMC6411743:
# ± gives the standard deviation of the averaged measurements. This is a selection; strong and weak results do not stand in their true shares.
# Legend:
# Experiment in all cases: NP40-soluble protein abundance relative to vehicle (solubility fold change) (ratio); higher = more soluble protein in presence of AMP-PNP
# CDKAL1 = target: T1, CDKAL1 (UniProt Q5VV42)
# T1 sequence (whole entry): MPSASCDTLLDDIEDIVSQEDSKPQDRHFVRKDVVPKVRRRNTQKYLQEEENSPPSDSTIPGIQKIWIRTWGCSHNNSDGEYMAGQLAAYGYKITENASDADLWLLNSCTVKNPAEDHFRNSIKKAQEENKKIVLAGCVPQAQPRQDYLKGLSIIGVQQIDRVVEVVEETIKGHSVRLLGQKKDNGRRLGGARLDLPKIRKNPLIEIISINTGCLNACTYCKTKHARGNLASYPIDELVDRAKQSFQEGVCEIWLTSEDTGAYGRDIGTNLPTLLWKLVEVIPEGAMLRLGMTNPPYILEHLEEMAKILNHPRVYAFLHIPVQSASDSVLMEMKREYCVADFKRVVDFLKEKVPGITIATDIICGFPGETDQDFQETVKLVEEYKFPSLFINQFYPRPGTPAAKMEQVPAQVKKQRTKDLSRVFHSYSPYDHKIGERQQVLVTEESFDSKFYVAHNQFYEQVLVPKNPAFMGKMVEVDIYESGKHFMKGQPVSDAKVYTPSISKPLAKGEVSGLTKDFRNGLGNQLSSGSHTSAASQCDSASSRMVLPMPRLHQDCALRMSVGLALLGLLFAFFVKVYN
# Summary of the method: (§1)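 Across three independent experiments, values are fold changes against the detergent-processed vehicle for each replicate, based on vsn-normalised intensities. The samples were Jurkat crude lysate treated with eight concentrations (0.1 to 10 mM) for 10 min at room temperature and then 3 min at 37 °C. Lysate was solubilised with 0.8% NP40 and benzonase, ultracentrifuged, and the supernatant analysed by TMT-labelled LC-MS/MS.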
# FAHD1 = target: T2, FAHD1 (UniProt Q6P587)
# T2 sequence (whole entry): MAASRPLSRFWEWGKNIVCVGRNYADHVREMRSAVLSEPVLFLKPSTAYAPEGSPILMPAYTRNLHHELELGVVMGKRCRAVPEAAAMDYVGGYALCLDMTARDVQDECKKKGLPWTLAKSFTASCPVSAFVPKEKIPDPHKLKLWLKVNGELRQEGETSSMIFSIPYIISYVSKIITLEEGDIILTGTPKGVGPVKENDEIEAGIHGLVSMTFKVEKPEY
# Summary of the method: as §1
# NCR3LG1 = target: T3, NCR3LG1 (UniProt Q68D85)
# T3 sequence (whole entry): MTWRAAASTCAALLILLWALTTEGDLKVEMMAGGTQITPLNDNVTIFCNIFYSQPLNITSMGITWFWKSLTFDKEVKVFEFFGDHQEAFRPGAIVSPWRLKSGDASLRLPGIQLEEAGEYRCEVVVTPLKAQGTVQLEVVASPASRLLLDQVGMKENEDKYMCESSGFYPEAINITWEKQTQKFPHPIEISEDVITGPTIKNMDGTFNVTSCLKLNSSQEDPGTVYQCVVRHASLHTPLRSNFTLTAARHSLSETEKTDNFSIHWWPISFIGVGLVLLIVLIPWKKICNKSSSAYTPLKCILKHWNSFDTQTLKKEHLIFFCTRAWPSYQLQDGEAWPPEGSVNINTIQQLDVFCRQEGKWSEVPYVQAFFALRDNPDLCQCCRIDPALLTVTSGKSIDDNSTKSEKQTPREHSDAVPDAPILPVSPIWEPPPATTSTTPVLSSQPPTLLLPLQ
# Summary of the method: as §1
# NUFIP2 = target: T4, NUFIP2 (UniProt Q7Z417)
# T4 sequence (whole entry): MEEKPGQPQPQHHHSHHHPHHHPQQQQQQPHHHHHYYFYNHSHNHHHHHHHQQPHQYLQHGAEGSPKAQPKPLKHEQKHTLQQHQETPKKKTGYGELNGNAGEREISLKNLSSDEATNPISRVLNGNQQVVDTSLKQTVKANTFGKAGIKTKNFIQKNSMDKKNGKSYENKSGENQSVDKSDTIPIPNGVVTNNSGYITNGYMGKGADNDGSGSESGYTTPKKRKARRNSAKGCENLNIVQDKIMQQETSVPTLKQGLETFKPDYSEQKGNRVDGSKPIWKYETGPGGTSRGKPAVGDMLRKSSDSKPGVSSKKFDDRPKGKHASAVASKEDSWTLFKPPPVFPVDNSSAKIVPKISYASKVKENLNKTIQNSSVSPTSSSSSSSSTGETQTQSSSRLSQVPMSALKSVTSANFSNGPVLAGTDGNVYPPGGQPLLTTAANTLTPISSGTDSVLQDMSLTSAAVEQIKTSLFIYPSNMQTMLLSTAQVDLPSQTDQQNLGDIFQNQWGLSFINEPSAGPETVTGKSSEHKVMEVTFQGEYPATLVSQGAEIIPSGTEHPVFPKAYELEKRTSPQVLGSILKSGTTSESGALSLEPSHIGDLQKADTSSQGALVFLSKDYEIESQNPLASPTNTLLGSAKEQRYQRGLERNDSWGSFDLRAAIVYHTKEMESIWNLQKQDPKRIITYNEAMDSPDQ
# Summary of the method: as §1
# PRPF38B = target: T5, PRPF38B (UniProt Q5VTL8)
# T5 sequence (whole entry): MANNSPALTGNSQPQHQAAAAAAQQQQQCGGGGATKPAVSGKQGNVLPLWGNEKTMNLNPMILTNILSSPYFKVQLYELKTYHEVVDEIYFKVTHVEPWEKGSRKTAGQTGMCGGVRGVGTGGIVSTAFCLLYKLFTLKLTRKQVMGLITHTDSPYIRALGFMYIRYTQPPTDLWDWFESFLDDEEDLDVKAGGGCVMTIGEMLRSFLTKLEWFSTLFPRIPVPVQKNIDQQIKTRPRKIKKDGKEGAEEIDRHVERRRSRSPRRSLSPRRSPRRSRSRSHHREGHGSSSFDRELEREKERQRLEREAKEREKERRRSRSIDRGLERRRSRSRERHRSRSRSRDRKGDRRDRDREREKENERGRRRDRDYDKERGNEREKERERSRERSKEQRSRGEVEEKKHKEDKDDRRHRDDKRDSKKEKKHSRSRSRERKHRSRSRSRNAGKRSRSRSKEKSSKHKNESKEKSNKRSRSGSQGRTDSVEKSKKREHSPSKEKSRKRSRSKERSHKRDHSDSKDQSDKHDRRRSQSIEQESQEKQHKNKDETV
# Summary of the method: as §1
structure (smiles),measurement,setting,value
Nc1ncnc2c1ncn2[C@@H]1O[C@H](COP(=O)(O)OP(=O)(O)NP(=O)(O)O)[C@@H](O)[C@H]1O [adenylyl imidodiphosphate],NP40-soluble protein abundance,CDKAL1; concentration: 1mM,0.9774 ± 0.0092
same,NP40-soluble protein abundance,CDKAL1; concentration: 2mM,0.924 ± 0.07
same,NP40-soluble protein abundance,CDKAL1; concentration: 4mM,0.9696 ± 0.0065
same,NP40-soluble protein abundance,CDKAL1; concentration: 6mM,0.937 ± 0.012
same,NP40-soluble protein abundance,CDKAL1; concentration: 8mM,0.937 ± 0.0095
same,NP40-soluble protein abundance,CDKAL1; concentration: 10mM,0.918 ± 0.023
same,NP40-soluble protein abundance,FAHD1; concentration: 1mM,0.967 ± 0.024
same,NP40-soluble protein abundance,FAHD1; concentration: 2mM,0.969 ± 0.011
same,NP40-soluble protein abundance,FAHD1; concentration: 4mM,1.01 ± 0.034
same,NP40-soluble protein abundance,FAHD1; concentration: 6mM,0.992 ± 0.044
same,NP40-soluble protein abundance,FAHD1; concentration: 8mM,1.03 ± 0.022
same,NP40-soluble protein abundance,FAHD1; concentration: 10mM,1 ± 0.039
same,NP40-soluble protein abundance,NCR3LG1; concentration: 1mM,1.03 ± 0.077
same,NP40-soluble protein abundance,NCR3LG1; concentration: 2mM,1.031 ± 0.009
same,NP40-soluble protein abundance,NCR3LG1; concentration: 4mM,1.04 ± 0.035
same,NP40-soluble protein abundance,NCR3LG1; concentration: 6mM,0.984 ± 0.021
same,NP40-soluble protein abundance,NCR3LG1; concentration: 8mM,0.982 ± 0.011
same,NP40-soluble protein abundance,NCR3LG1; concentration: 10mM,0.992 ± 0.042
same,NP40-soluble protein abundance,NUFIP2; concentration: 1mM,1.11 ± 0.029
same,NP40-soluble protein abundance,NUFIP2; concentration: 2mM,1.22 ± 0.066
same,NP40-soluble protein abundance,NUFIP2; concentration: 4mM,1.24 ± 0.023
same,NP40-soluble protein abundance,NUFIP2; concentration: 6mM,1.26 ± 0.14
same,NP40-soluble protein abundance,NUFIP2; concentration: 8mM,1.27 ± 0.14
same,NP40-soluble protein abundance,NUFIP2; concentration: 10mM,1.37 ± 0.12
same,NP40-soluble protein abundance,PRPF38B; concentration: 1mM,1.03 ± 0.033
same,NP40-soluble protein abundance,PRPF38B; concentration: 2mM,1.03 ± 0.074
same,NP40-soluble protein abundance,PRPF38B; concentration: 4mM,1.03 ± 0.08
same,NP40-soluble protein abundance,PRPF38B; concentration: 6mM,1.04 ± 0.049
same,NP40-soluble protein abundance,PRPF38B; concentration: 8mM,1.06 ± 0.029
same,NP40-soluble protein abundance,PRPF38B; concentration: 10mM,1.11 ± 0.09

# 2 entries drawn at random from the list so far, as already listed:
structure (smiles),measurement,setting,value
Nc1ncnc2c1ncn2[C@@H]1O[C@H](COP(=O)(O)OP(=O)(O)NP(=O)(O)O)[C@@H](O)[C@H]1O [adenylyl imidodiphosphate],NP40-soluble protein abundance,FAHD1; concentration: 10mM,1 ± 0.039
same,NP40-soluble protein abundance,NUFIP2; concentration: 4mM,1.24 ± 0.023
